{"sequences": {"note": "Amino acid sequences for entries named in this document (tags omitted).", "UniProt P61586": "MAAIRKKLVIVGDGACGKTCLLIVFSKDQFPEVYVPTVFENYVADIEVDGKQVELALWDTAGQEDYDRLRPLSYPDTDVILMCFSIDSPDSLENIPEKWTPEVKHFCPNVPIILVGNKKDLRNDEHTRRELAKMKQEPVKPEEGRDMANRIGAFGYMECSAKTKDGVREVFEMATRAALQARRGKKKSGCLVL"}, "source": "paper PMC5679609", "about": "(PLoS ONE, 2017)", "molecules": {"B1": {"name": "RhoGDI1 (GDP-dissociation inhibitor 1) (protein, UniProt P52565 1-204)", "chain": "MAEQEPTAEQLAQIAAENEEDEHSVNYKPPAQKSIQEIQELDKDDESLRKYKEALLGRVAVSADPNVPNVVVTGLTLVCSSAPGPLELDLTGDLESFKKQSFVLKEGVEYRIKISFRVNREIVSGMKYIQHTYRKGVKIDKTDYMVGSYGPRAEEYEFLTPVEEAPKGMLARGSYSIKSRFTDDDKTDHLSWEWNLTIKKDWKD"}, "B2": {"name": "wild-type (wt) syndecan-4 with GFP in the extracellular domain (GFP::SDC4) (protein, UniProt P31431 19-198)", "chain": "ESIRETEVIDPQDLLEGRYFSGALPDDEDVVGPGQESDDFELSGSGDLDDLEDSMIGPEVVHPLVPLDNHIPERAGSGSQVPTEPKKLEENEVIPKRISPVEESEDVSNKVSMSSTVQGSNIFERTEVLAALIVGGIVGILFAVFLILLLMYRMKKKDEGSYDLGKKPIYKKAPTNEFYA"}, "B3": {"name": "Ser179Ala SDC4 (non-phosphorylatable), with GFP in the extracellular domain (protein, UniProt P31431 19-198)", "chain": "ESIRETEVIDPQDLLEGRYFSGALPDDEDVVGPGQESDDFELSGSGDLDDLEDSMIGPEVVHPLVPLDNHIPERAGSGSQVPTEPKKLEENEVIPKRISPVEESEDVSNKVSMSSTVQGSNIFERTEVLAALIVGGIVGILFAVFLILLLMYRMKKKDEGAYDLGKKPIYKKAPTNEFYA"}, "B4": {"name": "Ser179Glu SDC4 (phosphomimetic), with GFP in the extracellular domain (natural protein, human, UniProt P31431 19-198, looked up)", "chain": "ESIRETEVIDPQDLLEGRYFSGALPDDEDVVGPGQESDDFELSGSGDLDDLEDSMIGPEVVHPLVPLDNHIPERAGSGSQVPTEPKKLEENEVIPKRISPVEESEDVSNKVSMSSTVQGSNIFERTEVLAALIVGGIVGILFAVFLILLLMYRMKKKDEGEYDLGKKPIYKKAPTNEFYA", "notes": "syndecan-4 (SDC4), human, GenBank CAG46871.1; GFP inserted into the extracellular domain at position 131; also called phosphomimetic SDC4; source: MCF-7, stably transfected, in lysate; not shown: GFP, internal (at position 131), kept"}}, "key": {"[1]": {"target": "T1, RhoGDI1 (GDP-dissociation inhibitor 1) (human (endogenous in MCF-7)) (UniProt P52565)", "T1 sequence": "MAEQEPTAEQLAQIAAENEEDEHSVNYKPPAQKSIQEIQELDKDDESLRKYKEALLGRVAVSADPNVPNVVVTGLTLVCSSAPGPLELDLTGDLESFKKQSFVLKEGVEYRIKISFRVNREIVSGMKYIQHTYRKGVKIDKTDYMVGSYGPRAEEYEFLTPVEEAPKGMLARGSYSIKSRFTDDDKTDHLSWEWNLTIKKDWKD", "experiment": "co-IP; anti-RhoGDI1 antibody, lysates of the MCF-7 lines expressing the SDC4 constructs; Mg2+-lysis buffer; blot for GFP::SDC4, Rac1 or RhoA"}, "[2]": {"target": "T2, Ser179Ala SDC4 (non-phosphorylatable), with GFP in the extracellular domain (human) (UniProt P31431)", "T2 sequence": "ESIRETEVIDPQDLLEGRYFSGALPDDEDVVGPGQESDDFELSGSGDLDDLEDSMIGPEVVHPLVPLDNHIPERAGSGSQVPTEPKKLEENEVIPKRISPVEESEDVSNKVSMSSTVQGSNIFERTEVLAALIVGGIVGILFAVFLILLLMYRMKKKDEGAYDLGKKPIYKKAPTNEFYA", "experiment": "co-IP; anti-GFP antibody (precipitates GFP::SDC4), lysates of the MCF-7 lines expressing the SDC4 constructs, nt MCF-7 as negative control; Mg2+-lysis buffer; blot for Rac1, Pak1 or RhoGDI1"}, "[3]": {"target": "T3, wild-type (wt) syndecan-4 with GFP in the extracellular domain (GFP::SDC4) (human) (UniProt P31431)", "T3 sequence": "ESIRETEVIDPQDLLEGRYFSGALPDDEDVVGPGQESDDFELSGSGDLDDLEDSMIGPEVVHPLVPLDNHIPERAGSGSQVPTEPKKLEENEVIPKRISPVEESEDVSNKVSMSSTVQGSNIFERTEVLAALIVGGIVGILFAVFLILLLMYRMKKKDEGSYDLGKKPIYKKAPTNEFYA", "experiment": "co-IP; anti-GFP antibody (precipitates GFP::SDC4), lysates of the MCF-7 lines expressing the SDC4 constructs, nt MCF-7 as negative control; Mg2+-lysis buffer; blot for Rac1, Pak1 or RhoGDI1"}, "[4]": {"target": "T4, Ser179Glu SDC4 (phosphomimetic), with GFP in the extracellular domain (human) (UniProt P31431)", "T4 sequence": "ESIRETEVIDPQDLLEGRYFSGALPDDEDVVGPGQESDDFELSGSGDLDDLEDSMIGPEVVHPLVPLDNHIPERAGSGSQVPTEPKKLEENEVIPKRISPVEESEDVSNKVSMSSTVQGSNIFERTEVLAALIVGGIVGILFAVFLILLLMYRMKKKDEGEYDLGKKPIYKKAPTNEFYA", "experiment": "co-IP; anti-GFP antibody (precipitates GFP::SDC4), lysates of the MCF-7 lines expressing the SDC4 constructs, nt MCF-7 as negative control; Mg2+-lysis buffer; blot for Rac1, Pak1 or RhoGDI1"}, "[5]": {"target": "T1, RhoGDI1 (GDP-dissociation inhibitor 1) (human (endogenous in MCF-7))", "experiment": "co-IP; anti-RhoGDI1 antibody, lysates of the MCF-7 lines expressing the SDC4 constructs; Mg2+-lysis buffer; blot for GFP::SDC4, Rac1 or RhoA", "remark": "listed apart in the source"}}, "note": "Where two headings read alike, the source gives them in different places. Results are given in words; binding and its absence hold for the method and conditions named. Binding seen in cells or lysates may run through a third protein. Some binding calls cover weakened binding; strength is not graded here. For some of these results: Sequences can lack the tags named with a protein."}
{"molecule": "RhoA (from UniProt P61586 1-193)", "values": [{"measurement": "binding", "setting": "[1]", "result": "binds"}]}
{"molecule": "B1", "values": [{"measurement": "binding", "setting": "[2]", "result": "binds"}, {"measurement": "binding", "setting": "[3]", "result": "binds"}, {"measurement": "binding", "setting": "[4]", "result": "binds"}]}
{"molecule": "B2", "values": [{"measurement": "binding", "setting": "[5]", "result": "binds"}]}
{"molecule": "B3", "values": [{"measurement": "binding", "setting": "[5]", "result": "binds"}]}
{"molecule": "B4", "values": [{"measurement": "binding", "setting": "[5]", "result": "binds"}]}
